The source of these data is paper doi:10.1101/2020.11.18.388520.

Results are given in words; binding and its absence hold for the method and conditions named. In cells and extracts the contact can be indirect. Some binding calls cover weakened binding; strength is not graded here.

In assay [1] the target is Arabidopsis thaliana … DISEASE … 1 (AtADR1), wildtype (Arabidopsis thaliana) (UniProt Q9FW44). In words: co-IP.
The target in assay [2] is Arabidopsis thaliana ADR1 D461V, autoactivated QHV mutant (Arabidopsis thaliana) (UniProt Q9FW44). In words: co-IP.

B1: Arabidopsis thaliana … DISEASE … 1 (AtADR1), wildtype (receptor, UniProt Q9FW44 1-787)
chain: MASFIDLFAGDITTQLLKLLALVANTVYSCKGIAERLITMIRDVQPTIREIQYSGAELSNHHQTQLGVFYEILEKARKLCEKVLRCNRWNLKHVYHANKMKDLEKQISRFLNSQILLFVLAEVCHLRVNGDRIERNMDRLLTERNDSLSFPETMMEIETVSDPEIQTVLELGKKKVKEMMFKFTDTHLFGISGMSGSGKTTLAIELSKDDDVRGLFKNKVLFLTVSRSPNFENLESCIREFLYDGVHQRKLVILDDVWTRESLDRLMSKIRGSTTLVVSRSKLADPRTTYNVELLKKDEAMSLLCLCAFEQKSPPSPFNKYLVKQVVDECKGLPLSLKVLGASLKNKPERYWEGVVKRLLRGEAADETHESRVFAHMEESLENLDPKIRDCFLDMGAFPEDKKIPLDLLTSVWVERHDIDEETAFSFVLRLADKNLLTIVNNPRFGDVHIGYYDVFVTQHDVLRDLALHMSNRVDVNRRERLLMPKTEPVLPREWEKNKDEPFDAKIVSLHTGEMDEMNWFDMDLPKAEVLILNFSSDNYVLPPFIGKMSRLRVLVIINNGMSPARLHGFSIFANLAKLRSLWLKRVHVPELTSCTIPLKNLHKIHLIFCKVKNSFVQTSFDISKIFPSLSDLTIDHCDDLLELKSIFGITSLNSLSITNCPRILELPKNLSNVQSLERLRLYACPELISLPVEVCELPCLKYVDISQCVSLVSLPEKFGKLGSLEKIDMRECSLLGLPSSVAALVSLRHVICDEETSSMWEMVKKVVPELCIEVAKKCFTVDWLDD
B1: in assay [1], the binding result is “binds”.

B2: Arabidopsis thaliana ADR1 D461V, autoactivated QHV mutant (receptor, UniProt Q9FW44 1-787)
chain: MASFIDLFAGDITTQLLKLLALVANTVYSCKGIAERLITMIRDVQPTIREIQYSGAELSNHHQTQLGVFYEILEKARKLCEKVLRCNRWNLKHVYHANKMKDLEKQISRFLNSQILLFVLAEVCHLRVNGDRIERNMDRLLTERNDSLSFPETMMEIETVSDPEIQTVLELGKKKVKEMMFKFTDTHLFGISGMSGSGKTTLAIELSKDDDVRGLFKNKVLFLTVSRSPNFENLESCIREFLYDGVHQRKLVILDDVWTRESLDRLMSKIRGSTTLVVSRSKLADPRTTYNVELLKKDEAMSLLCLCAFEQKSPPSPFNKYLVKQVVDECKGLPLSLKVLGASLKNKPERYWEGVVKRLLRGEAADETHESRVFAHMEESLENLDPKIRDCFLDMGAFPEDKKIPLDLLTSVWVERHDIDEETAFSFVLRLADKNLLTIVNNPRFGDVHIGYYDVFVTQHVVLRDLALHMSNRVDVNRRERLLMPKTEPVLPREWEKNKDEPFDAKIVSLHTGEMDEMNWFDMDLPKAEVLILNFSSDNYVLPPFIGKMSRLRVLVIINNGMSPARLHGFSIFANLAKLRSLWLKRVHVPELTSCTIPLKNLHKIHLIFCKVKNSFVQTSFDISKIFPSLSDLTIDHCDDLLELKSIFGITSLNSLSITNCPRILELPKNLSNVQSLERLRLYACPELISLPVEVCELPCLKYVDISQCVSLVSLPEKFGKLGSLEKIDMRECSLLGLPSSVAALVSLRHVICDEETSSMWEMVKKVVPELCIEVAKKCFTVDWLDD
For B2, the binding entry in assay [2] was “binds”.
